Assay results taken from the supplement of paper PMC12067093, “Discovery and optimisation of a covalent ligand for TRIM25 and its application to targeted protein ubiquitination” (Chemical Science, 2025).
This is one part of the list.

Protein sequences, listed by entry. Tags and fused reporters are not part of them. Lines headed by an entry give the natural chain unless they say otherwise; changes in a name come on top.
UniProt Q6PL18: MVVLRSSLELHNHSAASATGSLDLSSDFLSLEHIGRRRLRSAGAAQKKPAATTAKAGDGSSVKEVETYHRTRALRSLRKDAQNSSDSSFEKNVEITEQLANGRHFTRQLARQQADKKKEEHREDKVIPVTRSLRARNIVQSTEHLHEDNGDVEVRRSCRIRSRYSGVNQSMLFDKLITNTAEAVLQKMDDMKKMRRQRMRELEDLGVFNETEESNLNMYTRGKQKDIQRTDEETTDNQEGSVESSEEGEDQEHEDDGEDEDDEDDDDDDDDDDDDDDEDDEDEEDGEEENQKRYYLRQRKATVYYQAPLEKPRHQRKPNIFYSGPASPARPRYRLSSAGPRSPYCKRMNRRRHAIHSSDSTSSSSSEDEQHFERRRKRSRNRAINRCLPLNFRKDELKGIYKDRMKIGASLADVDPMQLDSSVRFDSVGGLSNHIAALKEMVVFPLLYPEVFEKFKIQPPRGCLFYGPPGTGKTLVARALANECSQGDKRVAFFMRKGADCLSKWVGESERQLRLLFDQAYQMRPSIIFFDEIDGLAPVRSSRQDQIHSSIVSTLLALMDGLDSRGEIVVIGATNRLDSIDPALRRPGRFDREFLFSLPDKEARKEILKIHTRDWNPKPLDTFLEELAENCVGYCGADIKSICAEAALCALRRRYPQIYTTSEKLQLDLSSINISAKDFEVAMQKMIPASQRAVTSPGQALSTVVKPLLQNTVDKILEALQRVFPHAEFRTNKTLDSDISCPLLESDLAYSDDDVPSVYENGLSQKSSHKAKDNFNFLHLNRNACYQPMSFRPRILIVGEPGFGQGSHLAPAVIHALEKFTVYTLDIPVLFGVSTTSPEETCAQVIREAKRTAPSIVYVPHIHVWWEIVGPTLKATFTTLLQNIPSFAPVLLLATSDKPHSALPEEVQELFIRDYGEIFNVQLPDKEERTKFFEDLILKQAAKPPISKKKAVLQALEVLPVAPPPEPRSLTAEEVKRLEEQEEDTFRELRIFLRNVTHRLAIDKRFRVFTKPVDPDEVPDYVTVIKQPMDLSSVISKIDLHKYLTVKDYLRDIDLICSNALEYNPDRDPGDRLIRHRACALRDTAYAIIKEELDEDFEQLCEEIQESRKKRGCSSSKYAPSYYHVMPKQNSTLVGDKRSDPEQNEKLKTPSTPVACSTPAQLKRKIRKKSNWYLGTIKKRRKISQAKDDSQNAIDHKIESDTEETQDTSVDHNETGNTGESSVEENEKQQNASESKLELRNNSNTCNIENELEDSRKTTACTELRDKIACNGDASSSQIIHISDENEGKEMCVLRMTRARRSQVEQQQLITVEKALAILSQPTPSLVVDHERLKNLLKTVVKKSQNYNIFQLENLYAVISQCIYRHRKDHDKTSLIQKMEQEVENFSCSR
UniProt Q5TC12: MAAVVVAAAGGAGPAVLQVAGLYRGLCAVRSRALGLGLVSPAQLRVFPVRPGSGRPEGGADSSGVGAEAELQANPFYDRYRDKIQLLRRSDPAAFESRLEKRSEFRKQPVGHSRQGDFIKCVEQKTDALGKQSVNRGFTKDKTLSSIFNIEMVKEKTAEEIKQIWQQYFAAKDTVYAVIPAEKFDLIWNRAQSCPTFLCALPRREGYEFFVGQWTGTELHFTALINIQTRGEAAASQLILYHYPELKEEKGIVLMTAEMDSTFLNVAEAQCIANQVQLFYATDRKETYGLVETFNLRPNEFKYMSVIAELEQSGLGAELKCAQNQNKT
UniProt P15336: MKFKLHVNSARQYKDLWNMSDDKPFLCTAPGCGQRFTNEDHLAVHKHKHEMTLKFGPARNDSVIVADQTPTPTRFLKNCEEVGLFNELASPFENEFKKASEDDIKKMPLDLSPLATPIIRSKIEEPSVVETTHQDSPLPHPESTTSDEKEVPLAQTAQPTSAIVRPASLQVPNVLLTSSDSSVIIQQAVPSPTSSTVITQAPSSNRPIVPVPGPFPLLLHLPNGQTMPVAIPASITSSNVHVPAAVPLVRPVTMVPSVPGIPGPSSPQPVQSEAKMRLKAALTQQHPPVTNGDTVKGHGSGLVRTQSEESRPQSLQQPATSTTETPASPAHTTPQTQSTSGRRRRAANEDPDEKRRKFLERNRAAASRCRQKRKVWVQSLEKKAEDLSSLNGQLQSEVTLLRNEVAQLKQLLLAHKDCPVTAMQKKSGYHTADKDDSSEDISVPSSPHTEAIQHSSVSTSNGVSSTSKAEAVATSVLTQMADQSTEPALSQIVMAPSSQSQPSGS
UniProt Q13535: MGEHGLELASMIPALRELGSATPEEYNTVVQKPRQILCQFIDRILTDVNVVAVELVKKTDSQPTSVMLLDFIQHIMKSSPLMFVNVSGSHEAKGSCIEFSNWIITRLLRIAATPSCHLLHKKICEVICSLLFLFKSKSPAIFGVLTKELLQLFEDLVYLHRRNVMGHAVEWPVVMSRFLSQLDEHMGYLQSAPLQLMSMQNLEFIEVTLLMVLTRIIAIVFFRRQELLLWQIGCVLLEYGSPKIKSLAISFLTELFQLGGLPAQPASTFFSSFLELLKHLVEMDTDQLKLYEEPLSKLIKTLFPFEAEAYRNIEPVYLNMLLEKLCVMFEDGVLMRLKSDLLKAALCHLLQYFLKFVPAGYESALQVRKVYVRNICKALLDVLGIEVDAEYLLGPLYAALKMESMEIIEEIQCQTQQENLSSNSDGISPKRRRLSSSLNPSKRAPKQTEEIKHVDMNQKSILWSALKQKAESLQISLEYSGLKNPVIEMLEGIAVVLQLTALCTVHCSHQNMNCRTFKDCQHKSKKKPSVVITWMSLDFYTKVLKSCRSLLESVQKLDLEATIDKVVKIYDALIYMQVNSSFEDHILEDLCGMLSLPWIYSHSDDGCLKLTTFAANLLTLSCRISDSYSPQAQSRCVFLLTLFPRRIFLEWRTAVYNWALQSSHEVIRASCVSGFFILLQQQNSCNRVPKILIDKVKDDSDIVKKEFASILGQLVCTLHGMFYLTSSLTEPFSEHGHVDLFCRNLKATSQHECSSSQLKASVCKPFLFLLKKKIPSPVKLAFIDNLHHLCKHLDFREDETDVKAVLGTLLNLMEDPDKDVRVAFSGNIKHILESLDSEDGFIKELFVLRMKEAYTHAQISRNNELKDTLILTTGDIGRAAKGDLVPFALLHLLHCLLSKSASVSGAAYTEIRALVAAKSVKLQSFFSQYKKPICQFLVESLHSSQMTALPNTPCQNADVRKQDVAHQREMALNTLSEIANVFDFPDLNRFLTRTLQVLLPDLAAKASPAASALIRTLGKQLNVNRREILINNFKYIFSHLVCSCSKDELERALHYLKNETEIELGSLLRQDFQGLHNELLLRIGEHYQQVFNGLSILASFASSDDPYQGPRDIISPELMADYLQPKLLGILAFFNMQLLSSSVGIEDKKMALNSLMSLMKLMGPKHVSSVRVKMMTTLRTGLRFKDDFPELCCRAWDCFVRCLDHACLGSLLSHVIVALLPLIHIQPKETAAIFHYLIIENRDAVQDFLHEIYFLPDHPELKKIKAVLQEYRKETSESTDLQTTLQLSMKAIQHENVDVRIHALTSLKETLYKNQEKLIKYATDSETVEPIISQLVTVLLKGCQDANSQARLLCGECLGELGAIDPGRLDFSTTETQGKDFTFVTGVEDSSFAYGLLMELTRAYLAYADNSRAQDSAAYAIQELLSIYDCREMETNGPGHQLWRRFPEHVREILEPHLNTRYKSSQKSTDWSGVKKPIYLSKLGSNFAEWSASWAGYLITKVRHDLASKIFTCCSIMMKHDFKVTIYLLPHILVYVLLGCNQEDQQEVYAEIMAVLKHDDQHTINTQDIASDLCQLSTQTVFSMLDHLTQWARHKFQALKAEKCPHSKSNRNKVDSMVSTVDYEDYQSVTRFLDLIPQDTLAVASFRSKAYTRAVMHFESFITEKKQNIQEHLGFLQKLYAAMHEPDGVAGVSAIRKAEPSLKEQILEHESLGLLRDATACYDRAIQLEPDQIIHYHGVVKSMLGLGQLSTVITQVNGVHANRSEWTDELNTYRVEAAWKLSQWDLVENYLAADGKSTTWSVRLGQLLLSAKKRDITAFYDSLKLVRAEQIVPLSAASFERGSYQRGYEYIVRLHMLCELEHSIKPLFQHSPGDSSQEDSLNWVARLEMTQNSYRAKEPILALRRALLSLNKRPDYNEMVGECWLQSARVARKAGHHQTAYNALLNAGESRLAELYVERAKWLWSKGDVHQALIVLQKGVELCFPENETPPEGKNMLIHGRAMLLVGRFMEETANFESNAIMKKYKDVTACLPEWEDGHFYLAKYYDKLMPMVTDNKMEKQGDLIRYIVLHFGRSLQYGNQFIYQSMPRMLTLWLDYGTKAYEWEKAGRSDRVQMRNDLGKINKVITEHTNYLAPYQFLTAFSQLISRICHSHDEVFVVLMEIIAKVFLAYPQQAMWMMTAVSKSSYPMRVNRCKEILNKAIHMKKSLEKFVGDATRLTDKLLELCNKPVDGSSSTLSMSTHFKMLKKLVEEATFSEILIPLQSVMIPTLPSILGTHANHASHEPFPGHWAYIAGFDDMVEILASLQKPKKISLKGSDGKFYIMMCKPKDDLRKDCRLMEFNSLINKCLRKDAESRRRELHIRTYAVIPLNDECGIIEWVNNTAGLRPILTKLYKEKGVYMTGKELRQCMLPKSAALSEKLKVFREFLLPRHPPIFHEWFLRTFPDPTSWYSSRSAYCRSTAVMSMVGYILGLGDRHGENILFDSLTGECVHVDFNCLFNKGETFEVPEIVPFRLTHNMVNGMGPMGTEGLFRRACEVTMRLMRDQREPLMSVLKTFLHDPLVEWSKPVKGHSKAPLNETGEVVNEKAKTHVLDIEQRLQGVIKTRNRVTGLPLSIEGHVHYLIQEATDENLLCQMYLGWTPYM
UniProt P21281, whole entry, looked up: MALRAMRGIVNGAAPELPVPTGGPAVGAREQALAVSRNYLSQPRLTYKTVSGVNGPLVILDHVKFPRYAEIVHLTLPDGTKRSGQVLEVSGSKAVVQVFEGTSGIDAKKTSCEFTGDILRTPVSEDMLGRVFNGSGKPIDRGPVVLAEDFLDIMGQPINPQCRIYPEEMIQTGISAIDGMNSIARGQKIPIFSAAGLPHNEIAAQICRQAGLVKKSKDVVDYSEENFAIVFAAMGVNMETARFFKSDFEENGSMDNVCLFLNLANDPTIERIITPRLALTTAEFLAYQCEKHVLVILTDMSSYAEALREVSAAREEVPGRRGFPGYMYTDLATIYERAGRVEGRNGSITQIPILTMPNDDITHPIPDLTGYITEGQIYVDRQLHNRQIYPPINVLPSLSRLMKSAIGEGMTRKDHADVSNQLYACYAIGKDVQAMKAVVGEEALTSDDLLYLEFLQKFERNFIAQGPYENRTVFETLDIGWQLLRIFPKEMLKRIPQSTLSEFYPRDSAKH
UniProt O95671: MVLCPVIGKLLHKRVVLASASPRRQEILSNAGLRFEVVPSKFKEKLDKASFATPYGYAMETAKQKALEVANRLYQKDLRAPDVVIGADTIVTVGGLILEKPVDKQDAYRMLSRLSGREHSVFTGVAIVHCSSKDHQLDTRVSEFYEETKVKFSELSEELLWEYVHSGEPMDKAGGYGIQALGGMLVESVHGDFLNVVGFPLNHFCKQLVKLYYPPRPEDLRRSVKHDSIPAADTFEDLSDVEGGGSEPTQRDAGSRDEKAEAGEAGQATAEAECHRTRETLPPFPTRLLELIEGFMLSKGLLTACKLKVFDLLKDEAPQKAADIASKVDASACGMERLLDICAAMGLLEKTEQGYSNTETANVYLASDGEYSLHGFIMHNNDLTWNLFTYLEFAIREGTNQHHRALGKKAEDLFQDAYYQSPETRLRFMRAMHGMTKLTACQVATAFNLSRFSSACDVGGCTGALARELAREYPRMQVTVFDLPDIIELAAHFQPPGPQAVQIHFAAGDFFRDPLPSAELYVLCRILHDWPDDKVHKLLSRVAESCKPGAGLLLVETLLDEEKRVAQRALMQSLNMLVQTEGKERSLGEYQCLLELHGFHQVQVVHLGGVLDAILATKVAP
UniProt Q9BZE9, whole entry, looked up: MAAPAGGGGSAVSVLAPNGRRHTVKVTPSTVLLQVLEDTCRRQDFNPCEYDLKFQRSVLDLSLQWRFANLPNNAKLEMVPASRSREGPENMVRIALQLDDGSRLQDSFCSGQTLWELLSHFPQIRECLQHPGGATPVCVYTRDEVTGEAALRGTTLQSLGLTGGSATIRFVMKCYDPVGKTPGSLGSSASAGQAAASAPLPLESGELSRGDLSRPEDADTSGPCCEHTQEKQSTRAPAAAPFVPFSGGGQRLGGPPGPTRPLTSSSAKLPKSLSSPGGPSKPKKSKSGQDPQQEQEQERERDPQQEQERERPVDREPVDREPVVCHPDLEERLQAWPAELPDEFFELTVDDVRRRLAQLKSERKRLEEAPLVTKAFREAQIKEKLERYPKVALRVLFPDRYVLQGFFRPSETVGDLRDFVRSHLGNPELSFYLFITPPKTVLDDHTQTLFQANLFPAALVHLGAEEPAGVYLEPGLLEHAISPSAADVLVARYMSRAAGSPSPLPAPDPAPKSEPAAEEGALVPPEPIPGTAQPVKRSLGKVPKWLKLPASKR

compound: Cc1cc(ccc1-c1ccccc1)C(=O)N1CCCN(CC1)C(=O)CCl [compound 10]; assay: probe-labelled cysteine peptide fold change vs DMSO (competition) (log2 fold change); higher = less target engagement (more negative = stronger competition); details: 10 µM; THP-1; incubation time: 4 h
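Note: competitive profiling in live THP-1 cells: cysteine peptides tagged with an iodoacetamide desthiobiotin (IA-DTB) probe, intensity after compound treatment relative to DMSO-treated cells.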

Row | Target | probe-labelled cysteine peptide fold change
1 | ATAD2_Q6PL18_1246_NNSNTCNIENELEDSRK (UniProt Q6PL18) | -0.37
2 | ATP6V1A_P38606_532_FCPFYK (UniProt P38606) | -0.116
3 | ATPAF1_Q5TC12_194_AQSCPTFLCALPR (UniProt Q5TC12) | 0.223
4 | ATF2_P15336_79_NCEEVGLFNELASPFENEFK (UniProt P15336) | 0.0486
5 | ATAD2_Q6PL18_1156_TPSTPVACSTPAQLKR (UniProt Q6PL18) | -0.115
6 | ATR_Q13535_1343_GCQDANSQAR (UniProt Q13535) | 0.175
7 | ATP6V1B2_P21281_425_DHADVSNQLYACYAIGK (UniProt P21281) | 0.162
8 | ATP9B_O43861_551_AIVLCHNVTPVYESR (UniProt O43861) | -0.147
9 | ATAD2B_Q9ULI0_53_AASCPAAK (UniProt Q9ULI0) | -0.0086
10 | ATG7_O95352_406_QPLYEFEDCLGGGKPK (UniProt O95352) | -0.0902
11 | ASMTL_O95671_305_GLLTACK (UniProt O95671) | -0.0702
12 | ASMTL_O95671_441_LTACQVATAFNLSR (UniProt O95671) | -0.0865
13 | ATP11B_Q9Y2G3_741_SDSECAEQLR (UniProt Q9Y2G3) | 0.0144
14 | ATP5F1C_P36542_103_GLCGAIHSSIAK (UniProt P36542) | 0.0596
15 | ATR_Q13535_1430_AQDSAAYAIQELLSIYDCR (UniProt Q13535) | -0.165
16 | ASPSCR1_Q9BZE9_325_ERPVDREPVDREPVVCHPDLEER (UniProt Q9BZE9) | -0.485

As entered above.
Entry of ATP6V1B2_P21281_425_DHADVSNQLYACYAIGK (UniProt P21281) under probe-labelled cysteine peptide fold change: 0.162
Entry of ATAD2_Q6PL18_1156_TPSTPVACSTPAQLKR (UniProt Q6PL18) under probe-labelled cysteine peptide fold change: -0.115
